Laboratory results from patent US20220169677A1 (INSERM INSTITUT NATIONAL DE LA SANTE ET DE LA RECHERCHE …, published 2022).
Results are given in words; binding and its absence hold for the method and conditions named. Some binding calls cover weakened binding; strength is not graded here.

T1: recombinant human NRP-1 (human, UniProt O14786-2 22-644, limits assumed)
T1 construct: Coated on a 96-well plate at 200 ng/well; GenBank AAC51759.1 is printed only as the preferred definition of NRP-1; also called Neuropilin-1
T1 sequence (looked up): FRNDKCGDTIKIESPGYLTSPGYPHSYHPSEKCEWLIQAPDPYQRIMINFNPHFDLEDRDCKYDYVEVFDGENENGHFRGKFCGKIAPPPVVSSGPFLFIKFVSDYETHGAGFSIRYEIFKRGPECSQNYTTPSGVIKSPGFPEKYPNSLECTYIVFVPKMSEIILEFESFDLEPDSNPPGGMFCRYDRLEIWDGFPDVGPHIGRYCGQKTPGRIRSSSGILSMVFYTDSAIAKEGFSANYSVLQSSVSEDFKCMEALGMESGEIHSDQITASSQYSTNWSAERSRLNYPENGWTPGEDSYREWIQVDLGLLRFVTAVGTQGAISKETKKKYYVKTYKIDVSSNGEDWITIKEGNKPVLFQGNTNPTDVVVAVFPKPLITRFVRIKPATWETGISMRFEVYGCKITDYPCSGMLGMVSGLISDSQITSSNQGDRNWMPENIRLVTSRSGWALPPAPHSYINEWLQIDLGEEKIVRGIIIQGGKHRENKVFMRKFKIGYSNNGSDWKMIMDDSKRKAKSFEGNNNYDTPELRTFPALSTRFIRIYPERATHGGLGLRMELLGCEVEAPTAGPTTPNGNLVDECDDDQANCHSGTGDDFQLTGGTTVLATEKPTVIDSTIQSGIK

B1: H2N-Cys-Thr-Lys-Pro-Arg-OH (peptide)
peptide: H-CTKPR-OH
notes: TKPR (tuftsin) with an added N-terminal Cys; also called CTKPR
B2: H2N-Cys-Leu-Pro-Pro-Arg-OH (peptide)
peptide: H-CLPPR-OH
notes: LPPR (active part of A7R) with an added N-terminal Cys; also called CLPPR
B3: H2N-Cys-Lys-Pro-Arg-Arg-OH (peptide)
peptide: H-CKPRR-OH
notes: KPRR (peptide derived from the VEGF-A165 C-terminus) with an added N-terminal Cys; also called CKPRR

Each binder was assayed against T1, recombinant human NRP-1 (assay: chemiluminescence competition assay on coated NRP-1).

binding, binds:
B1
B2
B3
